Source: US11608328B2, “Chemical probes to identify anti-mycobacterial MmpL3 inhibitors” (Creighton University, priority 2019, dated 2023)
At least one compound was matched to its structure with a doubt left.

Protein sequences, listed by entry. Tags and fused reporters are not part of them.
UniProt P9WJV5, whole entry, looked up, stated change not applied: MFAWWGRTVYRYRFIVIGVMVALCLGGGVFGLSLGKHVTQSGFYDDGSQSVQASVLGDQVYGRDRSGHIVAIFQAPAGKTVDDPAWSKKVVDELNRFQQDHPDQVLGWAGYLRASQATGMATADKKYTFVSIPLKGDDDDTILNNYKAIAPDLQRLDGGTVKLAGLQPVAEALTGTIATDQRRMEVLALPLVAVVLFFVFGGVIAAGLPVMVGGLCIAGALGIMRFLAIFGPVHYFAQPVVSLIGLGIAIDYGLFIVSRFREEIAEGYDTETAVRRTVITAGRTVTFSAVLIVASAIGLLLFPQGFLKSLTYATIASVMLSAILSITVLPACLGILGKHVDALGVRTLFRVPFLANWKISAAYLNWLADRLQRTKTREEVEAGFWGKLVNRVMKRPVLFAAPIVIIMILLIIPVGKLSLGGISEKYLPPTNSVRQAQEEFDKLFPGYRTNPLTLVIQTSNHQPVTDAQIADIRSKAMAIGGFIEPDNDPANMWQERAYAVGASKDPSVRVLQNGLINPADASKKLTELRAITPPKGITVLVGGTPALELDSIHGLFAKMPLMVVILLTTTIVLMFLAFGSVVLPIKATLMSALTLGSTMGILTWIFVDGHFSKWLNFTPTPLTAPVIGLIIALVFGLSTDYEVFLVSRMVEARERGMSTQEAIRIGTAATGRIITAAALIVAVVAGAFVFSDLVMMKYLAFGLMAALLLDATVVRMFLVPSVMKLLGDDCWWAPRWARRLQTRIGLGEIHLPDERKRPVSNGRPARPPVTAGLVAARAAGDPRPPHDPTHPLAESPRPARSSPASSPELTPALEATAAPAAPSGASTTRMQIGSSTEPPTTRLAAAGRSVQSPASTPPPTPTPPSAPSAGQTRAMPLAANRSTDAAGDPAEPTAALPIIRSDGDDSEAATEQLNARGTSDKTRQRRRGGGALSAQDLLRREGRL

Tests used:
[1] = biological target: MmpL3tb in MsmgΔmmpL3/pMVGH1-mmpL3tb cells (Mycobacterium tuberculosis, UniProt P9WJV5); type: cell-based
purified MmpL3-GFP = purified MmpL3-GFP (Mycobacterium tuberculosis, UniProt P9WJV5); type: binding; details: 2 μM Compound 2 with increasing inhibitor concentrations

CO[C@H]1/C=C/O[C@@]2(C)Oc3c(C)c(O)c4c(O)c(c(/C=N/N5CCN(C)CC5)c(O)c4c3C2=O)NC(=O)/C(C)=C\C=C\[C@H](C)[C@H](O)[C@@H](C)[C@@H](O)[C@@H](C)[C@H](OC(C)=O)[C@@H]1C [RIF, rifampicin]
displacement of probe (Compound 1 or Compound 2) in intact cells [1]: not observed
displacement of Compound 2 from purified MmpL3tb (purified MmpL3-GFP): No significant displacement
